# In US20120045395:
# Amino acid sequences for entries named in this document (tags omitted). Residues count along the entry.
# UniProt P84022, 2-425: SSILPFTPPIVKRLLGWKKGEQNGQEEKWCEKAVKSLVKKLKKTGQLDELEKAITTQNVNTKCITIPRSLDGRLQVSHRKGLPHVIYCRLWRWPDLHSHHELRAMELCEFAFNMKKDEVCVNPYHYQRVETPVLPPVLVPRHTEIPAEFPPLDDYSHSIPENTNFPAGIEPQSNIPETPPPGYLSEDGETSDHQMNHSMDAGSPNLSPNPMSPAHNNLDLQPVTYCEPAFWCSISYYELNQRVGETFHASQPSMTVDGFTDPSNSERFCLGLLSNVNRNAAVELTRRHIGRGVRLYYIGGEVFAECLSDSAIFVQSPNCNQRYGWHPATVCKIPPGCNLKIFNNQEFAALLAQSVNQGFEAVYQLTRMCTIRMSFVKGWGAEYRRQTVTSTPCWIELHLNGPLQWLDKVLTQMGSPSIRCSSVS
# At least one result comes from cells or an extract, where the contact may be indirect.
# Biological target: SMAD3 (A549 nuclear extract, TGF-beta treated) (Homo sapiens) (UniProt P84022)
# Assay: EMSA
# Details: supershift with SMAD3 antibody, not with peroxiredoxin 6 antibody; competed by unlabeled DNA; protein in an extract; label: 5'-Cy5
sequence,measurement,value
GATAATTAAATGTTAAAAGTCAGC (double strand) [let-7d promoter EMSA probe],binding result,binds
